Experimental data: PubChem BioAssay AID652243 (Drosophila RNAi Screening Center, 2013)
Purpose: 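Fly regulators of androgen-dependent reporter output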 (primary screen). Cells: Drosophila S2R+ cells. Knock-down reagent: long dsRNA against Drosophila genes. Timing: 72 h (48 h, then 24 h hormone). Challenge: synthetic androgen R1881 at 10 nM for 24 h. Detection: 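Per-well raw luminescence of the androgen-driven firefly reporter and of the Renilla control, two replicates each, without normalisation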. Reading the numbers: firefly reporter light: higher = more light from androgen-responsive reporter; Renilla control light: higher = more constitutive control signal (cell number, transfection). Active means: 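Hit when the log firefly-to-Renilla ratio dropped or increased by a fixed fold versus the mean of GFP or LacZ controls across duplicate plates; lowering cut given as 1.5 and as 3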. Meaning of the calls: active = hit: reporter lowered or raised; inactive = no hit.
The deposit covers about 24,000 reagents; shown is an unselected part of those with a known target gene and a result. In the full data, 246 (1%) were called active. 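Plates not normalised; calls are printed but the firefly/Renilla ratio behind them is not deposited; fold cut for lowering reported inconsistently.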 The raw values are shown without normalisation. Not given: the amount of reagent.

| Target gene | DRSC id | firefly reporter light, replicate 1 | firefly reporter light, replicate 2 | Renilla control light, replicate 1 | Renilla control light, replicate 2 | call |
| --- | --- | --- | --- | --- | --- | --- |
| Eip78C (Ecdysone-induced protein 78C) | DRSC23097 | 7.03e5 | 7.25e5 | 1.62e6 | 1.80e6 | inactive |
| CG1635 | DRSC15131 | 93812 | 67674 | 6.75e5 | 4.59e5 | inactive |
| CG1635 | DRSC25487 | 1.37e6 | 1.05e6 | 7.10e5 | 6.81e5 | inactive |
| mira (miranda) | DRSC16998 | 49057 | 64884 | 7.37e5 | 8.46e5 | inactive |
| mira (miranda) | DRSC26837 | 4.79e5 | 3.81e5 | 9.29e5 | 6.63e5 | inactive |
| CG1314 | DRSC20495 | 1.23e5 | 1.12e5 | 5.82e5 | 5.56e5 | inactive |
| Patj | DRSC08712 | 1.17e6 | 7.39e5 | 1.73e6 | 9.05e5 | inactive |
| Patj | DRSC28714 | 2.97e5 | 2.67e5 | 1.57e6 | 1.48e6 | active |
| Stoml2 (Stomatin like 2) | DRSC04326 | 9.17e5 | 6.94e5 | 9.17e5 | 1.07e6 | inactive |
| CG31861 | DRSC21665 | 6.62e5 | 5.88e5 | 2.92e6 | 2.42e6 | inactive |
| CG31861 | DRSC29279 | 6.99e5 | 3.89e5 | 1.06e6 | 8.69e5 | inactive |
| CG8301 | DRSC16405 | 1.33e5 | 2.41e5 | 2.71e6 | 3.07e6 | inactive |
| CG8301 | DRSC28170 | 5.27e5 | 4.88e5 | 1.99e6 | 1.74e6 | inactive |
| Clic (Chloride intracellular channel) | DRSC19364 | 1.77e5 | 1.23e5 | 8.01e5 | 7.67e5 | inactive |
| Or85e (Odorant receptor 85e) | DRSC16768 | 1.33e5 | 1.86e5 | 2.18e6 | 1.62e6 | inactive |
| CG14395 | DRSC14852 | 1.10e5 | 48719 | 1.72e6 | 1.31e6 | inactive |
| slmb (supernumerary limbs) | DRSC17056 | 1.20e5 | 1.36e5 | 7.57e5 | 7.28e5 | inactive |
| CG13344 | DRSC06378 | 8.42e5 | 8.85e5 | 9.51e5 | 9.95e5 | inactive |
| CG9582 | DRSC03267 | 1.40e5 | 1.37e5 | 1.22e6 | 1.15e6 | inactive |
| CG7806 | DRSC03071 | 1.32e6 | 1.24e6 | 2.02e6 | 1.83e6 | inactive |
| Pu (Punch) | DRSC04645 | 8.17e5 | 7.09e5 | 1.42e6 | 1.48e6 | inactive |
| Pu (Punch) | DRSC29066 | 5.36e5 | 5.40e5 | 1.44e6 | 1.72e6 | inactive |
| Dnaaf4 (Dynein axonemal assembly factor 4) | DRSC02405 | 1.43e5 | 2.42e5 | 1.56e6 | 2.08e6 | inactive |
| CG8420 | DRSC16418 | 1.70e5 | 1.46e5 | 2.83e6 | 2.52e6 | inactive |
| CG15923 | DRSC15129 | 66562 | 1.36e5 | 5.44e5 | 7.05e5 | inactive |
| kek2 (kekkon 2) | DRSC03552 | 2.30e5 | 2.79e5 | 1.89e6 | 2.43e6 | inactive |
| kek2 (kekkon 2) | DRSC26189 | 2.90e5 | 3.23e5 | 4.23e5 | 3.77e5 | inactive |
| CG11630 | DRSC03696 | 2.48e5 | 3.10e5 | 1.78e6 | 1.61e6 | inactive |
| CG14151 | DRSC10153 | 2.49e5 | 2.29e5 | 1.87e6 | 1.69e6 | inactive |
| CG10089 | DRSC09695 | 1.35e5 | 1.60e5 | 2.43e6 | 1.93e6 | inactive |
| CG10089 | DRSC25988 | 4.29e5 | 4.12e5 | 8.17e5 | 7.71e5 | inactive |
| CG34283 | DRSC13313 | 5.72e5 | 6.96e5 | 2.41e6 | 3.61e6 | inactive |
| CG8136 | DRSC16385 | 1.82e5 | 1.79e5 | 1.81e6 | 2.06e6 | inactive |
| CG8136 | DRSC28135 | 5.20e5 | 4.70e5 | 1.51e6 | 1.33e6 | inactive |
| CG18493 | DRSC15334 | 2.58e5 | 3.39e5 | 2.96e6 | 3.82e6 | inactive |
| sgl (sugarless) | DRSC21431 | 6.50e5 | 6.71e5 | 3.00e6 | 2.73e6 | inactive |
| sgl (sugarless) | DRSC29308 | 7.74e5 | 7.79e5 | 1.17e6 | 1.12e6 | inactive |
| nonC (no-on-and-no-off transient C) | DRSC18366 | 81623 | 26844 | 3.55e5 | 3.27e5 | inactive |
| nonC (no-on-and-no-off transient C) | DRSC18367 | 3.02e5 | 2.84e5 | 2.62e6 | 2.18e6 | inactive |
| nonC (no-on-and-no-off transient C) | DRSC37080 | – | – | – | – | inactive |
